Hit rate of the full screen: of about 340,000 compounds, about 170 (0.05%) were called active. Inconclusive means that the source gave no clear call. Such entries were picked first, then a sample of the others. Calls follow the shape of the dose curve; as a rule, active = well fitted inhibition curve with a large enough effect in the signal ratio, with a control signal flat (not every such curve was filed as active); inconclusive = small, poorly fitted or top-dose-only effect, or effect the other way, or a change in a side signal; inactive = flat fitted curve, though single readings scatter; the % refers to the signal ratio. Where the call is inconclusive, the potency comes from a doubtful curve fit.
Assay: qHTS Assay to Find Inhibitors of Chronic Active B-Cell Receptor Signaling;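 as to activity change, negative = inhibition: plate controls were basal doxycycline-induced cells for no effect and cells given 10 µM MG132 for full effect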
Conditions: ABC-DLBCL IkBa-CBG/CBR reporter, luminescence ratio (green luciferase fused to IkBa over red control in TMD8 lymphoma cells), 4 h; activity change, negative = inhibition: at 46.1 µM (top of the series)
Procedure, shortened: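 Compounds up to 46 uM were incubated four hours with TMD8 cells whose green CBG68 luciferase is fused to IkappaBalpha; red CBR luminescence normalised the signal, and concentration-effect curves were fitted to fusion, red and ratio data.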
Potency is read from the fitted curve at half-maximal effect.

SMILES	activity change, negative = inhibition	Potency
CCCCCCCCn1ccc(=N)cc1	inconclusive: -1.65%	
CCN1C(=O)c2cccc3c(S(=O)(=O)Nc4ncccc4C)ccc1c23		inconclusive: 35.5 µM [falling, single point]
CCCOc1ccc(C(=O)CCNc2cccc(Cl)c2)cc1	inconclusive: 1.47%	
Cc1cccc2sc(N(CCCN(C)C)C(=O)CCc3ccccc3)nc12	inconclusive: -4.39%	
CCOC(=O)CC(NC(=O)Cn1nnc(-c2ccccc2Cl)n1)c1ccc(OC)cc1 (stereo not given)	inconclusive: -1.86%	
Cc1ccc2nc(SCCC(=O)O)cc(C)c2c1	inconclusive: 17.6%	
CC1CCCCC1NC(=O)CN(C)S(=O)(=O)c1cccc2cccnc12 (stereo not given)	inconclusive: 0.109%	
O=C1CC(=C(c2ccccc2)c2ccccc2)C(=O)N1CCN1CCN(c2cccc(Cl)c2)CC1		inconclusive: 0.259 µM [rising, full curve, poor fit]
O=C(NNC(=S)Nc1ccccc1Cl)c1ccncc1		inconclusive: 35.5 µM [falling, single point]
COc1ccc(/C=N/NC(=O)c2cccnc2)cc1Cn1nc([N+](=O)[O-])c(Br)c1C		inconclusive: 20 µM [cytotoxic, partial curve]
Cc1ccc2[nH]c(=O)c(C3C(C#N)=C(N)Oc4c3ccc3cccnc43)cc2c1 (stereo not given)		inconclusive: 2.91 µM [falling, partial curve, poor fit]
Oc1ccc(/C=N/Nc2nc(-c3ccc(Cl)cc3)cc(C(F)(F)F)n2)cc1	inconclusive: -8.08%	
Cc1ccc(-c2nc(S(=O)(=O)c3ccc(C)cc3)c(SCC(N)=O)o2)cc1	inconclusive: -12.2%	
COc1ccc(/C=N/NC(=S)Nc2cccc(C(=O)O)c2)cc1OC		inconclusive: 18.4 µM [falling, partial curve]
CC(=O)N1N=C(c2ccc(C)cc2)OC1c1ccc(Br)cc1 (stereo not given)		inconclusive: 0.794 µM [falling, full curve, poor fit]
C=CCOc1ccc(CNc2nccs2)cc1	inconclusive: -2.26%	
Cc1c(N2C(=O)/C(=C\c3cccc4ccccc34)SC2=S)c(=O)n(-c2ccccc2)n1C	inconclusive: 1.86%	
COc1cccc(CN(C)Cc2cc(=O)oc3c(C)c(C)ccc23)c1	inconclusive: -3.54%	
CCOc1cc(NC(=O)CCl)c(OCC)cc1NC(=O)CCl		active: 14.1 µM
Cc1csc(C(C)NC(=O)c2ccc(OC3CCN(CCc4ccccc4)CC3)cc2)n1 (stereo not given)	inconclusive: -16.1%	
COCCCNc1nc2ccccc2nc1NS(=O)(=O)c1ccc(C)cc1	inconclusive: 0.381%	
CCOC(=O)C(=CNc1nc(-c2ccc3ccccc3c2)cs1)C(=O)OCC	inconclusive: -5.83%	
Cc1ccc(OCCC(=O)OCC(=O)NC2CCS(=O)(=O)C2)cc1 (stereo not given)	inactive: -2.87%	
O=C(CCCc1ccccc1)NC12CC3CC(CC(C3)C1)C2	inactive: 0.699%	
Cc1ccc(C(CC(=O)N2CCCC2)c2ccccc2)c(O)c1 (stereo not given)	inactive: -2.95%	

SMILES	activity change, negative = inhibition	Potency
COc1cc2c(cc1OC)CN(c1ccc(C(N)=O)cc1[N+](=O)[O-])CC2		inconclusive: 31.6 µM [falling, partial curve, poor fit]
Cc1ccc2nc(Nc3ccc(C)c(Cl)c3)c3nncn3c2c1	inconclusive: 10.1%	
CCN(CC)C(=O)Cn1cc(C(=O)C(=O)NCC2COc3ccccc3O2)c2ccccc21 (stereo not given)		inconclusive: 2.82 µM [falling, full curve, poor fit]
Cc1cccc(C(=O)Nc2cc(NC(=O)c3cccs3)ccc2C)c1		inconclusive: 35.5 µM [falling, single point]
CCN(CCCNC(=O)CCNC(=O)Cn1ccc2ccccc2c1=O)c1ccccc1	inconclusive: -2.31%	
COc1cccc(-c2cn(C[C@H]3CC[C@@H]([C@@H]4CC[C@H](Cn5cc(-c6cccc(OC)c6)nn5)O4)O3)nn2)c1	inactive: 4.02%	
C1=C(c2ccco2)N2CCN=C2S1	inconclusive: 5.41%	
CCOC(=O)c1cc2ccc3ccccc3c2oc1=O	inactive: 7.17%	
CCC(CC)C1C(C#N)=C(N)Oc2n[nH]c(C)c21 (stereo not given)		inconclusive: 11.6 µM [falling, partial curve]
COc1cc(/C=C/C(=O)OCC(=O)N2CC(=O)Nc3ccccc32)ccc1O		inconclusive: 35.5 µM [falling, single point]
CCCCCCSc1ccc(-c2nc3ccc(Cl)cn3c2NC2CCCCC2)cc1		inconclusive: 14.6 µM [falling, partial curve, poor fit]
Cc1ccc(NC(=O)COc2ccc(-n3cnnn3)cc2)cc1C	inactive: -16.4%	
COc1ccc2cc(-c3ccsc3)ncc2c1	inconclusive: -19.4%	
Cc1[nH]c2ccc(C(=O)O)cc2c1C	inconclusive: 8.7%	
Cc1cc2n(n1)C(c1sccc1C)Nc1c(C)cccc1-2 (stereo not given)	inactive: -0.357%	
O=C(N/N=C/c1cn[nH]c1-c1ccc(Cl)cc1)c1ccc([N+](=O)[O-])cc1		inconclusive: 35.5 µM [falling, single point]
c1ccc(CN2CCC(N=C3NN=C(c4ccc5c(c4)OCCO5)CS3)CC2)cc1		inconclusive: 35.5 µM [falling, single point]
S=C(NCC1CCCO1)c1ccc(Br)cc1 (stereo not given)	inconclusive: 7.63%	
COc1ccc(NC(=O)N2CCn3c2nc2ccccc23)cc1	inconclusive: -19.7%	
Oc1cc(NCc2ccc(F)cc2)cc2cccnc12		inconclusive: 10.3 µM [rising, partial curve, poor fit]
COc1ccc(NC(=O)C2CCN(S(=O)(=O)c3ccc(OC)c(OC)c3)CC2)cc1	inactive: -7.89%	
CCOC(=O)C1(Cc2ccccc2)CCN(CC2CC=CCC2)CC1 (stereo not given)	inconclusive: -27.1%	
COc1cccc(C(=O)Nc2ccc(N3CCN(C(=O)c4cccs4)CC3)cc2)c1		inconclusive: 12.6 µM [falling, partial curve]
O=S1(=O)CCC(NC(=S)Nc2ccc3ccccc3c2)C1 (stereo not given)	inconclusive: -17.7%	
O=C1/C(=C/c2cccc(Br)c2)SC(=S)N1CCC(=O)N(CCO)c1ccccc1	inconclusive: -17.9%	

An excerpt from the list above, as a working copy:
SMILES	activity change, negative = inhibition	Potency
COc1ccc(NC(=O)N2CCn3c2nc2ccccc23)cc1	inconclusive: -19.7%	
Oc1cc(NCc2ccc(F)cc2)cc2cccnc12		inconclusive: 10.3 µM [rising, partial curve, poor fit]

Pulled one by one from above, two records:
SMILES	activity change, negative = inhibition	Potency
Cc1[nH]c2ccc(C(=O)O)cc2c1C	inconclusive: 8.7%	
COc1cc2c(cc1OC)CN(c1ccc(C(N)=O)cc1[N+](=O)[O-])CC2		inconclusive: 31.6 µM [falling, partial curve, poor fit]

— PubChem BioAssay AID493014 (National Center for Advancing Translational Sciences (NCATS), 2011)
